Columns and labels:
[1] = system: isolated segments of guinea pig ileum (acetylcholine); experiment: Anticholinergic activity: block of acetylcholine in isolated segments of guinea pig ileum
[2] = system: isolated segments of guinea pig ileum (histamine); experiment: Antihistaminic activity: block of histamine in isolated segments of guinea pig ileum

## CN(C)CCOC(c1ccccc1)c1ccccc1 [Diphenhydramine, reference compound]
[1]
  Conc. for 50% block of Acetylcholine: 3.3 μg/20 ml
[2]
  Conc. for 50% block of Histamine: 0.12 μg/20 ml

From patent US4210749A, “Substituted 1,2,4,5-tetrahydro-3H,3 benzazepines” (priority 1979, dated 1980)
